Mtb glucose medium: 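Whole-cell growth test on Mycobacterium tuberculosis, read after 3 days in glucose-containing 7H9 medium; the read-out is not stated. Compounds at 50 µM. The record gives no direction; compounds that gave an IC50 in retests scored well above the rest, so higher reads as more growth inhibition. Of about 69,000 compounds tested this way, about 760 (1.1%) reached 50% or more in at least one test.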
Mtb cholesterol medium: 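Whole-cell growth test on Mycobacterium tuberculosis, read after 4 days in a medium based on cholesterol and the lipid DPPC; the read-out is not stated. Tested at 50 µM. The record gives no direction; compounds that gave an IC50 in retests scored well above the rest, so higher reads as more growth inhibition. Of about 69,000 compounds tested this way, about 370 (0.54%) reached 50% or more in at least one test.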

The filed quantity is “Percent Effect” (%). The record does not define 0% and 100%; most values in the screen are far below 50% and negative numbers occur (in some assays of this library far below -100). This is an unselected part of the compounds tested. Two or more numbers in one place are separate tests of the same structure; such repeats can differ widely.

For CC1CCC(N2CCC(NS(=O)(=O)CCOC(C)C)CC2)CC1 (stereo not drawn) the result was Mtb glucose medium: 5.049% and -51.88%; Mtb cholesterol medium: -8.238%. CSC(C)(C)CNC(=O)NC1CCC1 gave Mtb glucose medium: -2.741%; Mtb cholesterol medium: 4.575% and -12.6%. Result for Cc1noc(C)c1CCC(=O)N1CCCN(CC(N)=O)CC1 was Mtb glucose medium: 18.2%; Mtb cholesterol medium: 2.946%. Result for CC(NCc1ccccn1)c1cc2c(cc1Br)OCCO2 (stereo not drawn) was Mtb glucose medium: 12.15%; Mtb cholesterol medium: 8.101%. For Cc1ccsc1C(CNC(=O)c1cc(=O)c2ccccc2[nH]1)N(C)C (stereo not drawn) the result was Mtb glucose medium: 0.8428%; Mtb cholesterol medium: 7.46%. With Fc1cnc(N2CC3(CCN(CC4CC4)C3)C2)nc1.O=C(O)C(F)(F)F the screen gave Mtb glucose medium: -53.06% and -4.54%; Mtb cholesterol medium: 11.27%.

With COc1ccccc1CN1CCCCC1c1n[nH]cc1-c1cc(C)no1.Cl (stereo not drawn) the screen gave Mtb glucose medium: 5.123%; Mtb cholesterol medium: -4.286%. Result for NC(=O)C1CCCN(C(=O)c2cnc3c(cnn3C3CCCC3)c2)C1 (stereo not drawn) was Mtb glucose medium: 12.74%; Mtb cholesterol medium: 15.61%. With CCn1ccnc1CN1CCCn2nc(CNC(=O)C3CCC3)cc2C1 the screen gave Mtb glucose medium: -39.98%; Mtb cholesterol medium: -19.76% and -3.159%. c1cnnc(NCC2CN(CCn3cccn3)CCO2)c1 (stereo not drawn) read Mtb glucose medium: -5.965% and -26.3%; Mtb cholesterol medium: -14.96%. For Cc1noc(C)c1CNC(=O)NCCOc1ccc(F)cc1F the result was Mtb glucose medium: 36.86%; Mtb cholesterol medium: 3.943%. With CC(C)N1CCCC(C(=O)NCCCc2cnn(C)c2)C1 (stereo not drawn) the screen gave Mtb glucose medium: -0.3745%; Mtb cholesterol medium: -5.91%.

With COC(=O)c1ccc(Cl)c(NS(=O)(=O)c2cn(C)cn2)c1 the screen gave Mtb glucose medium: -19.37%; Mtb cholesterol medium: -15.61%. For CCc1nc(C2CCCN2C(=O)c2cc(Cl)c[nH]2)no1 (stereo not drawn) the result was Mtb glucose medium: 2.39%; Mtb cholesterol medium: 7.197%. CN(C(=O)c1ccncc1)c1nnc(C2CCOC2)s1 (stereo not drawn) read Mtb glucose medium: 0.5356%; Mtb cholesterol medium: 0.1756% and -6.559%. With Cc1ccc(N(C)C2CCN(C(=O)c3ccsc3)CC2)nn1 the screen gave Mtb glucose medium: -4.952%; Mtb cholesterol medium: -4.089%. Result for COc1ncccc1CN1CCc2[nH]cnc2C1CCSC (stereo not drawn) was Mtb glucose medium: 27.02%; Mtb cholesterol medium: 7.316%. With COc1ccc(NC(=O)Cc2c(C)nn(C)c2C)cc1F the screen gave Mtb glucose medium: -13.37%; Mtb cholesterol medium: 2.227%.

With CCOCC1CN(C(=O)Cc2ccccn2)Cc2cnn(CC)c21 (stereo not drawn) the screen gave Mtb glucose medium: 22.22%; Mtb cholesterol medium: -18.65%. CCN(CC)c1ccc(C2C3=C(COC3=O)Nc3[nH]nc(C)c32)cc1 (stereo not drawn) gave Mtb glucose medium: -3.173%; Mtb cholesterol medium: -14.06% and -1.507%. Result for Cc1ccoc1C(=O)N1CC(C(=O)N2CCOCC2)C2(CCOCC2)C1 (stereo not drawn) was Mtb glucose medium: -7.623% and -48.64%; Mtb cholesterol medium: -10.28% and -5.777%. COCc1cccc(NCc2cccnc2)c1 read Mtb glucose medium: -9.962%; Mtb cholesterol medium: 6.248%. With COCc1ccc(CNc2cnn(C(C)(C)C)c(=O)c2Cl)cc1 the screen gave Mtb glucose medium: 44.08% and 42.8%; Mtb cholesterol medium: 49.22%. CN(Cc1nc(-c2ccco2)no1)C1CCCN(c2cccnn2)C1 (stereo not drawn) gave Mtb glucose medium: 7.358%; Mtb cholesterol medium: 1.447%.

[H][C@@]12CN(CC(C)C)C[C@]1([H])OCC(=O)N2c1ccccc1 read Mtb glucose medium: -1.484% and 5.893%; Mtb cholesterol medium: -19.1%. COCCC(=O)N1CCC2(CCCN(Cc3cc(OC)ccc3F)C2)C1 (stereo not drawn) read Mtb glucose medium: -3.062% and 1.654%; Mtb cholesterol medium: 9.482%. Result for Fc1ccc(CN2CCC3(CC2)CCN(Cc2nccs2)CC3)cc1.O=C(O)C(F)(F)F.O=C(O)C(F)(F)F was Mtb glucose medium: -10.35% and -0.459%; Mtb cholesterol medium: 3.227%. Cc1nnc2n1CCN(CC(=O)NC(C)c1ccc3ccccc3c1)C2 (stereo not drawn) read Mtb glucose medium: -6.297%; Mtb cholesterol medium: -17.68%. Cc1nnsc1C(=O)NCc1cccnc1N1CCCC(O)C1 (stereo not drawn) gave Mtb glucose medium: 3.1%; Mtb cholesterol medium: 13.83%. CCc1cnc(NCc2nc(CSC)no2)nc1 gave Mtb glucose medium: 6.37% and -3.491%; Mtb cholesterol medium: 18.46%.

O=C1NCCN1C1CCCN(Cc2coc(-c3cccs3)n2)C1 (stereo not drawn) read Mtb glucose medium: 8.737%; Mtb cholesterol medium: -5.414%. For O=C(O)C(F)(F)F.O=C(O)C(F)(F)F.c1ccc(COC[C@@H]2CCC[C@]23CN(Cc2nccs2)CCO3)nc1 the result was Mtb glucose medium: -8.123%; Mtb cholesterol medium: 7.022% and -5.718%. For CCNC(=O)NC(C)(C)C(=O)NCCc1csc2ccccc12 the result was Mtb glucose medium: 12.68%; Mtb cholesterol medium: 12.15%. For Cc1ccc(N2CCC3(CCN(C(=O)c4ccsc4)CC3)C2)nn1 the result was Mtb glucose medium: 15.35%; Mtb cholesterol medium: 6.5%. With Cc1occc1C(=O)N1CCC[C@]2(C[C@@H](OCc3ccncc3)CO2)C1.O=C(O)C(F)(F)F the screen gave Mtb glucose medium: -15.03%; Mtb cholesterol medium: -10.8%. Result for [H][C@@]12CC(=O)N(Cc3csc(C)n3)[C@@]1([H])CCN2Cc1cnn(C)c1 was Mtb glucose medium: -10.46%; Mtb cholesterol medium: -6.437% and -11.11%.

Result for CC(C)C(O)C(C)(C)CNC(=O)NCc1ccc(-n2cncn2)cc1 (stereo not drawn) was Mtb glucose medium: 4.496% and -24.76%; Mtb cholesterol medium: 4.894%. CCc1cnc(CN(C(C)=O)C2CCN(CCc3ccncc3)C2)o1 (stereo not drawn) gave Mtb glucose medium: -32.89%; Mtb cholesterol medium: -20.38%. NC(=O)c1cccc(CN2CCOC(Cn3cccn3)C2)c1 (stereo not drawn) read Mtb glucose medium: -3.555%; Mtb cholesterol medium: -4.913%. For CCOC(=O)C1CN(C(=O)COC)Cc2ncn(CC)c21 (stereo not drawn) the result was Mtb glucose medium: -17.63% and -8.436%; Mtb cholesterol medium: -13.72%. For Cn1cc(C(C)(O)CNc2ccccn2)cn1 (stereo not drawn) the result was Mtb glucose medium: -55.2%; Mtb cholesterol medium: -1.01%. For CC(C)n1cnc2c1C(C(=O)NCCC#N)N(Cc1ccccc1)CC2.O=C(O)C(F)(F)F (stereo not drawn) the result was Mtb glucose medium: 19.83%; Mtb cholesterol medium: 6.898%.

For O=C(O)c1cccc(CC2CCN(c3ncc(F)cn3)CC2)c1 the result was Mtb glucose medium: 0.5365% and -6.074%; Mtb cholesterol medium: 0.4233% and -1.055%.

The last 5 entries again:

With NC(=O)c1cccc(CN2CCOC(Cn3cccn3)C2)c1 (stereo not drawn) the screen gave Mtb glucose medium: -3.555%; Mtb cholesterol medium: -4.913%.
With CCOC(=O)C1CN(C(=O)COC)Cc2ncn(CC)c21 (stereo not drawn) the screen gave Mtb glucose medium: -17.63% and -8.436%; Mtb cholesterol medium: -13.72%.
With Cn1cc(C(C)(O)CNc2ccccn2)cn1 (stereo not drawn) the screen gave Mtb glucose medium: -55.2%; Mtb cholesterol medium: -1.01%.
With CC(C)n1cnc2c1C(C(=O)NCCC#N)N(Cc1ccccc1)CC2.O=C(O)C(F)(F)F (stereo not drawn) the screen gave Mtb glucose medium: 19.83%; Mtb cholesterol medium: 6.898%.
With O=C(O)c1cccc(CC2CCN(c3ncc(F)cn3)CC2)c1 the screen gave Mtb glucose medium: 0.5365% and -6.074%; Mtb cholesterol medium: 0.4233% and -1.055%.

The values are deposited in ChEMBL (CHEMBL3988442, “University of Dundee, Small-Polar-MMV Screening Library” (2021)).